In the supplement of paper PMC7024190:
The other results are listed elsewhere or left out. Single values are uncertain here, since repeats match poorly.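 The cells were human embryonic kidney cells carrying a Renilla luciferase gene, driven by the HSV-TK promoter, on a plasmid put in briefly by transfection. This is the first-round screen of about ten thousand compounds, looking for ones that raise reporter output.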

Tested on: HEK 293FT
Assay: log relative Renilla luciferase luminescence (reporter expression vs reference, reference not stated) (log (base not stated)); higher = higher recombinant reporter expression
Details: 10 µM; time after transfection 48 h
Method: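 HEK 293FT cells transiently transfected with pRL-TK (Renilla luciferase) were treated with compounds at 10 uM and luminescence was read about 42 h later. Values are log relative Renilla luminescence (log base and reference not stated). Single-pass screen; 2080 natural products library.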

Compound | log
CC1(C)O[C@H]2CC(=O)OC[C@]23[C@H]2CC[C@@]4(C)[C@@H](c5ccoc5)OC(=O)[C@H]5O[C@]54[C@]2(C)[C@H](O)C[C@@H]13 [Limonol] | -0.125
COc1c2ccoc2nc2c(OC)cccc12 [gamma-Fagarine] | -0.518
CC(=C/C(=O)O)/C=C/[C@]1(O)[C@@]2(C)CO[C@]1(C)C[C@@H](O)C2 [Dihydrophaseic acid] | -0.109
COC(=O)C1=CO[C@@H](C)[C@H]2CN3CCc4c([nH]c5ccccc45)[C@@H]3C[C@H]12 [Ajmalicine] | 0.0956
CC1OC(OC2C(OCCc3ccc(O)c(O)c3)OC(CO)C(O)C2OC(=O)C=Cc2ccc(O)c(O)c2)C(O)C(O)C1O (centres undefined) [Magnoloside A] | -0.106
CC(C)=CCc1cc2ccc(O)cc2oc1=O [7-Hydroxy-3-prenylcoumarin] | -0.119
CC1(C)CC[C@]2(C(=O)O)CC[C@]3(C)C(=CC[C@@H]4[C@@]5(C)C[C@@H](O)[C@H](O)C(C)(C)[C@@H]5CC[C@]43C)[C@@H]2C1 [Crategolic acid] | 0.127
COc1cc(/C=C/C(=O)NCCc2ccc(O)c(OC)c2)ccc1O [N-trans-Feruloyl-3-methoxytyramine] | -0.467
C/C(=C\CC[C@@H](C)[C@H]1CC[C@@]2(C)C3=CC[C@H]4C(C)(C)C(=O)CC[C@]4(C)C3=CC[C@]12C)CO [Ganoderol A] | 0.0825
COc1ccc(O)c(C(C)=O)c1 [2'-Hydroxy-5'-methoxyacetophenone] | -0.035
COc1cc2c(c(OC)c1OC)-c1c(cc3c(c1OC)OCO3)[C@H](O)[C@H](C)[C@H](C)C2 [Isogomisin O] | -0.344
C=C1[C@@H](OC(=O)/C=C/c2ccccc2)C[C@H](OC(C)=O)[C@]2(C)[C@@H]1C[C@@H]1CC(=O)C(C)=C([C@@H](OC(C)=O)[C@@H]2OC(C)=O)C1(C)C [2-Deacetoxytaxinine B] | -0.0264
COC(=O)c1ncc(OC)c2c1[nH]c1ccccc12 [4-Methoxy-1-methoxycarbonyl-beta-carboline] | 0.0924
CC(C)(Cl)C(O)COc1c2occc2cc2ccc(=O)oc12 (centres undefined) [Isosaxalin] | -0.0232
CC1(C)OC(=O)C=C[C@]2(C)[C@H]3[C@@H](O)C[C@@]4(C)[C@H](c5ccoc5)OC(=O)[C@H]5O[C@]54[C@]3(C)C(=O)C[C@@H]12 [Zapoterin] | 0.011
O=C(O)C(O)C(O)c1ccc(O)cc1 (centres undefined) [2,3-dihydroxy-3-(4-hydroxyphenyl)propanoic acid] | -0.537
C=C1CC[C@H]2C(C)(C)CCC[C@]2(C)[C@H]1/C=C/C(C)=O [15,16-Dinor-8(17),11-labdadien-13-one] | 0.164
C=C(C)C(OC(C)=O)C(OC(C)=O)c1c(OC)ccc2ccc(=O)oc12 (centres undefined) [Murrangatin diacetate] | -0.188
C=C1CC[C@@H]2[C@H]([C@H]3[C@H]1CC[C@]3(C)[C@@H](CC(C)C)c1c(O)c(C=O)c(O)c(C=O)c1O)C2(C)C [Macrocarpal C] | -0.0315
Cc1ccc2[nH]c3ccc(O)cc3c2c1 [Glycozolinine] | -0.462

Compound | log
C=C(CCC(O)C(C)(C)O)[C@H]1CC[C@]2(C)[C@@H]1CC[C@@H]1[C@@]3(C)CCC(=O)C(C)(C)[C@@H]3CC[C@]12C (some centres undefined) [24,25-Dihydroxydammar-20-en-3-one] | 0.00908
CC1(C)[C@H](O)CC[C@]2(C)[C@@H]1CCC1=C[C@@](C)([C@@H](O)CO)CC[C@]12O [9-Hydroxydarutigenol] | -0.157
COc1ccccc1[C@@H]1CC(=O)c2c(OC)cc(O)c(OC)c2O1 [7-Hydroxy-2',5,8-trimethoxyflavanone] | 0.317
CC(=O)OC[C@H](O)[C@]1(C)C=C2CC[C@@H]3C(C)(C)[C@H](O[C@@H]4O[C@H](CO)[C@@H](O)[C@H](O)[C@H]4O)CC[C@@]3(C)[C@@H]2CC1 [Hythiemoside A] | -0.203
COc1cc(OC)c2ccc(=O)oc2c1C[C@H]1OC1(C)C [Sibiricin] | -0.186
CC(=O)O[C@@H]([C@@H](C)[C@@H]1[C@H]2[C@]1(C)CC[C@@]13O[C@]2(O)C(=O)[C@@H]1CC[C@H]1C(C)(C)O[C@@H]2CC(=O)O[C@@]21[C@H]3O)[C@@H]1CC(C)C(=O)O1 (some centres undefined) [Pre-schisanartanin B] | 0.0981
COc1cc(C(=O)O)cc(OC)c1O [Syringic acid] | -0.248
COc1c(OC)c2occc2c2oc(=O)ccc12 [Pimpinellin] | 0.085
O=Cc1cc(O)c2[nH]c3ccc(O)cc3c2c1 [Clausine Z] | -0.566
C=CC(C)(C)c1c(OC)cc(O)c2c(=O)c3c(CC=C(C)C)c(O)c(O)cc3oc12 [Cudraxanthone D] | -0.824
CC1(C)CC[C@]2(C(=O)O)CC[C@]3(C)C(=CC[C@@H]4[C@@]5(C)C[C@@H](O)[C@@H](O)[C@@](C)(CO)[C@@H]5CC[C@]43C)[C@@H]2C1 [2,3,23-Trihydroxy-12-oleanen-28-oic acid] | -0.0704
CCCCCCCCC=CCCCCCCCc1cc(O)cc(O)c1 (stereo in doubt) [5-(Z-heptadec-8-enyl) resorcinol] | -0.083
COc1cc(/C=C/CO)ccc1O[C@@H]1O[C@H](CO)[C@@H](O)[C@H](O)[C@H]1O [Coniferin] | -0.00814
CC1=CC[C@@]23CC[C@@H]([C@@](C)(/C=C/C=C(\C)C(=O)O)OC2=O)[C@@]3(O)CC1 [Deacetylpseudolaric acid A] | -0.222
C=C1CC23CCC1CC2C12CCCC4(C)C5OCCN5C1OC3C(OC(C)=O)C42 (centres undefined) [Spiradine F] | 0.0607
CC1(C)OC[C@]2(C[C@@]34CC[C@@H]5C(C)(C)CCC[C@@]5(C)[C@@H]3CC[C@@H]2C4)O1 [ent-16beta,17-Isopropylidenedioxykaurane] | 0.085
C=C1C(=O)C2=C[C@H]1CCC(=O)[C@@]1(C)[C@H](C[C@H]2O)C(C)(C)CC[C@H]1OC(C)=O [Kongensin A] | -0.768
C=C(CC[C@@H]1OC1(C)C)[C@H]1CC[C@]2(C)[C@@H]1CC[C@@H]1[C@@]3(C)CCC(=O)C(C)(C)[C@@H]3CC[C@]12C [24,25-Epoxy-dammar-20(21)-en-3-one] | -0.0428
C=C1CC[C@@H]2[C@H]([C@H]3[C@H]1CC[C@]3(C)O)C2(C)C [Spathulenol] | 0.0352

Reformatted: results already given
Compound,log
"C=C(CC[C@@H]1OC1(C)C)[C@H]1CC[C@]2(C)[C@@H]1CC[C@@H]1[C@@]3(C)CCC(=O)C(C)(C)[C@@H]3CC[C@]12C [24,25-Epoxy-dammar-20(21)-en-3-one]",-0.0428
C=C1CC[C@@H]2[C@H]([C@H]3[C@H]1CC[C@]3(C)O)C2(C)C [Spathulenol],0.0352
